Reference: PubChem BioAssay (NCATS)
Inconclusive results, whose numbers are uncertain, are shown with a selection of clear calls. For some assays here: Potencies of inconclusive entries are doubtful fits and often do not repeat. Calls of active or inactive are those of the source. The call rests on the fitted dose curve; in most records, active means well fitted curve in the direction sought with a large enough effect; inconclusive means small, poorly fitted or top-dose-only effect, or another doubt; inactive means no such curve, though single readings can be large; an effect the other way counts as inactive or inconclusive.

Assays:
[1] = Quantitative High-Throughput drug screen in 47 multiple myeloma cell lines against the NCATS MIPE library collection: MOLP8_DSMZ cell viability assay (AID 1918977); further: nearly all actives have a fitted effect of over 45% in size;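 on viability (% of control): 100% = DMSO-only wells and 0% = media-only wells without cells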
Outline: (§1)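 qHTS format: cells plated (500/well), pin-dosed with MIPE 4.0 compounds, kept 48 h at 37 °C. Readout was CellTiter-Glo luminescence, median RLU.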

[2] = Quantitative High-Throughput drug screen in 47 multiple myeloma cell lines against the NCATS MIPE library collection: OCIMY1_PLB cell viability assay (AID 1918979); further: nearly all actives have a fitted effect of over 35% in size;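 on viability: 100% = DMSO-only wells and 0% = cell-free media-only wells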
Outline: as §1

[3] = Quantitative High-Throughput drug screen in 47 multiple myeloma cell lines against the NCATS MIPE library collection: MM1R_ATCC cell viability assay (AID 1918981); further: nearly all actives have a fitted effect of over 35% in size
Outline: as §1

[4] = Quantitative High-Throughput drug screen in 47 multiple myeloma cell lines against the NCATS MIPE library collection: LP1_DSMZ cell viability assay (AID 1918982); further: nearly all actives have a fitted effect of over 35% in size
Outline: as §1

[5] = Quantitative High-Throughput drug screen in 47 multiple myeloma cell lines against the NCATS MIPE library collection: KMS28PE_JCRB cell viability assay (AID 1918983); further: nearly all actives have a fitted effect of over 35% in size
Outline: as §1

[6] = Quantitative High-Throughput drug screen in 47 multiple myeloma cell lines against the NCATS MIPE library collection: OCIMY7_PLB cell viability assay (AID 1918987); settings: OCI-MY7 myeloma viability, CellTiter-Glo ATP, 48 h; viability (% of DMSO): at 45.8 µM (top of the series) unless noted; further: nearly all actives have a fitted effect of over 65% in size
Outline: as §1

[7] = Quantitative High-Throughput drug screen in 47 multiple myeloma cell lines against the NCATS MIPE library collection: OCIMY5_PLB cell viability assay (AID 1918988); settings: OCI-MY5 myeloma viability, ATP luminescence, 48 h; viability, % of control: at 45.8 µM; further: nearly all actives have a fitted effect of over 65% in size;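 on viability, % of control: 100% = DMSO-treated wells and 0% = wells with media alone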
Outline: as §1

[8] = Quantitative High-Throughput drug screen in 47 multiple myeloma cell lines against the NCATS MIPE library collection: SKMM1_PLB cell viability assay (AID 1919863); settings: SKMM1 myeloma viability, CellTiter-Glo ATP, 48 h; viability: stronger effect = lower value; further: nearly all actives have a fitted effect of over 35% in size
Outline: as §1

[9] = Quantitative High-Throughput drug screen in 47 multiple myeloma cell lines against the NCATS MIPE library collection: U266_ATCC cell viability assay (AID 1919864); further: nearly all actives have a fitted effect of over 35% in size;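 on viability (% of DMSO control): 0% = media-only wells without cells and 100% = DMSO-only wells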
Outline: as §1

[10] = Quantitative High-Throughput drug screen in 47 multiple myeloma cell lines against the NCATS MIPE library collection: XG6_PLB cell viability assay (AID 1919865); settings: XG6 myeloma viability, CellTiter-Glo ATP luminescence, 48 h; viability (% of control): at 45.8 µM; further: nearly all actives have a fitted effect of over 40% in size;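 on viability (% of control): 100% = DMSO-only wells and 0% = media-only wells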
Outline: as §1

[11] = Quantitative High-Throughput drug screen in 47 multiple myeloma cell lines against the NCATS MIPE library collection: XG1_PLB cell viability assay (AID 1919866); further: nearly all actives have a fitted effect of over 35% in size
Outline: as §1

[12] = Quantitative High-Throughput drug screen in 47 multiple myeloma cell lines against the NCATS MIPE library collection: VP6_DJ cell viability assay (AID 1919867); settings: ATP luminescence, 48 h; viability (% of DMSO): at 45.8 µM; further: nearly all actives have a fitted effect of over 40% in size;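 on viability (% of DMSO): 100% = DMSO-only wells and 0% = wells with media alone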
Outline: as §1

[13] = Quantitative High-Throughput drug screen in 47 multiple myeloma cell lines against the NCATS MIPE library collection: UTMC2_PLB cell viability assay (AID 1919868); settings: CellTiter-Glo ATP luminescence, 48 h; viability (% of DMSO control): at 45.8 µM; further: nearly all actives have a fitted effect of over 55% in size
Outline: as §1

[14] = Quantitative High-Throughput drug screen in 47 multiple myeloma cell lines against the NCATS MIPE library collection: PCM6_Riken cell viability assay (AID 1919870); settings: CellTiter-Glo ATP, 48 h; viability (% of control): at 45.8 µM; further: nearly all actives have a fitted effect of over 30% in size;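 on viability (% of control): 100% = DMSO-only wells and 0% = media-only wells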
Outline: as §1

[15] = Quantitative High-Throughput drug screen in 47 multiple myeloma cell lines against the NCATS MIPE library collection: NCIH929_DSMZ cell viability assay (AID 1918978); settings: NCI-H929 myeloma viability, CellTiter-Glo ATP, 48 h; viability, % of control: at 45.8 µM; further: nearly all actives have a fitted effect of over 35% in size
Outline: as §1

[16] = Quantitative High-Throughput drug screen in 47 multiple myeloma cell lines against the NCATS MIPE library collection: L363_DSMZ cell viability assay (AID 1918984); settings: L363 myeloma viability, CellTiter-Glo ATP luminescence, 48 h; viability (% of control): at 45.8 µM; further: nearly all actives have a fitted effect of over 40% in size
Outline: as §1

[17] = Quantitative High-Throughput drug screen in 47 multiple myeloma cell lines against the NCATS MIPE library collection: KMS34_JCRB cell viability assay (AID 1918985); settings: KMS34 myeloma viability, CellTiter-Glo ATP luminescence, 48 h; viability, percent of control: at 45.8 µM; further: nearly all actives have a fitted effect of over 40% in size;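 on viability, percent of control: 100% = DMSO-only wells and 0% = media-only wells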
Outline: as §1

[18] = Quantitative High-Throughput drug screen in 47 multiple myeloma cell lines against the NCATS MIPE library collection: OPM1_PLB cell viability assay (AID 1918989); settings: CellTiter-Glo, 48 h; viability (% of control): at 45.8 µM; further: nearly all actives have a fitted effect of over 40% in size;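 on viability (% of control): 100% = DMSO-only wells and 0% = media-only wells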
Outline: as §1

[19] = Quantitative High-Throughput drug screen in 47 multiple myeloma cell lines against the NCATS MIPE library collection: PE2_PLB cell viability assay (AID 1919869); settings: PE2_PLB myeloma cells viability, ATP luminescence, 48 h; viability (% of control): at 45.8 µM; further: nearly all actives have a fitted effect of over 35% in size;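 on viability (% of control): 100% = DMSO-only wells and 0% = cell-free media-only wells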
Outline: as §1

[20] = Quantitative High-Throughput drug screen in 47 multiple myeloma cell lines against the NCATS MIPE library collection: MM1S_ATCC cell viability assay (AID 1918980); further: nearly all actives have a fitted effect of over 45% in size
Outline: as §1
Potency means the concentration at half of the fitted maximal effect.

CCN[C@H]1C[C@H](C)S(=O)(=O)c2sc(S(N)(=O)=O)cc21
inconclusive: Potency [6] 2.64 µM [cytotoxic, full curve, poor fit] | Potency [8] 0.001 µM [cytotoxic] | Potency [10] 6.62 µM [cytotoxic, partial curve, poor fit] | Potency [11] 0.743 µM [cytotoxic, full curve, poor fit] | Potency [12] 14.8 µM [cytotoxic, partial curve, poor fit] | Potency [13] 0.0042 µM [cytotoxic, full curve, poor fit] | Potency [14] 16.6 µM [cytotoxic, partial curve, poor fit]
inactive: Potency [1] | Potency [2] | Potency [3] | Potency [4] | Potency [5] | Potency [7] | Potency [9]

CC1(CN2CCC(n3c(=O)[nH]c4ccccc43)CC2)OCc2ccccc2-n2cccc21 (centres undefined)
inconclusive: Potency [1] 6.62 µM [cytotoxic, partial curve, poor fit] | Potency [15] 14.8 µM [cytotoxic, partial curve] | Potency [4] 16.6 µM [cytotoxic, partial curve, poor fit] | Potency [6] 8.33 µM [cytotoxic, partial curve, poor fit] | Potency [7] 11.8 µM [cytotoxic, partial curve, poor fit] | Potency [8] 5.9 µM [cytotoxic, partial curve, poor fit] | Potency [12] 8.33 µM [cytotoxic, partial curve, poor fit] | Potency [13] 0.0132 µM [cytotoxic, full curve, poor fit] | Potency [14] 11.8 µM [cytotoxic, partial curve, poor fit]
active: Potency [9] 5.9 µM
inactive: Potency [16]

NC(=O)c1cccc(N)c1
inactive: Potency [4] | Potency [17] | Potency [7] | Potency [18] | viability [8] 132% | Potency [9] | Potency [19]
inconclusive: Potency [1] 1.18 µM [cytotoxic, full curve, poor fit] | Potency [16] 0.0093 µM [cytotoxic, full curve, poor fit] | Potency [10] 18.7 µM [cytotoxic, partial curve] | Potency [11] 13.2 µM [cytotoxic, partial curve, poor fit] | Potency [13] 11.8 µM [rising, single point]
active: Potency [15] 16.6 µM | Potency [6] 4.69 µM

O=C(O)CCNc1cc(N2CCc3ccccc3CC2)nc(-c2ccccn2)n1
inconclusive: Potency [1] 2.64 µM [cytotoxic, full curve, poor fit] | Potency [20] 20.9 µM [cytotoxic, partial curve, poor fit] | Potency [5] 0.0166 µM [cytotoxic, full curve, poor fit] | Potency [16] 3.32 µM [cytotoxic, partial curve, poor fit] | Potency [17] 2.64 µM [cytotoxic, full curve, poor fit] | Potency [6] 16.6 µM [cytotoxic, partial curve, poor fit] | Potency [8] 4.69 µM [cytotoxic, partial curve, poor fit] | Potency [12] 8.33 µM [cytotoxic, full curve, poor fit] | Potency [14] 3.32 µM [cytotoxic, full curve, poor fit]
inactive: Potency [2] | Potency [9] | Potency [19]
active: Potency [18] 5.26 µM

C[C@H]1[C@H](O)O[C@@H]2O[C@@]3(C)CC[C@@H]4[C@H](C)CC[C@@H]1[C@@]24OO3
inconclusive: Potency [1] 2.96 µM [cytotoxic, full curve] | Potency [15] 1.18 µM [cytotoxic, full curve] | Potency [3] 11.8 µM [cytotoxic, partial curve] | Potency [4] 1.32 µM [cytotoxic, full curve] | Potency [5] 9.35 µM [cytotoxic, partial curve] | Potency [17] 1.87 µM [cytotoxic, full curve] | Potency [8] 5.9 µM [cytotoxic, full curve] | Potency [9] 16.6 µM [cytotoxic, partial curve, poor fit] | Potency [13] 4.18 µM [cytotoxic, full curve] | Potency [14] 5.26 µM [cytotoxic, partial curve]
active: Potency [7] 5.26 µM

Cc1cnc(CNC(=O)c2c(=O)c3ccc(N4CCCN(C)CC4)nc3n3c2sc2ccccc23)cn1
active: Potency [1] 9.11 µM | Potency [8] 5.75 µM
inconclusive: Potency [15] 4.57 µM [cytotoxic, partial curve, poor fit] | Potency [4] 14.4 µM [cytotoxic, partial curve, poor fit] | Potency [17] 8.12 µM [cytotoxic, partial curve, poor fit] | Potency [6] 0.0046 µM [cytotoxic, full curve, poor fit] | Potency [13] 0.162 µM [cytotoxic, full curve, poor fit] | Potency [14] 7.24 µM [cytotoxic, partial curve, poor fit]
inactive: Potency [12]

2 records drawn at random from those above:
C[C@H]1[C@H](O)O[C@@H]2O[C@@]3(C)CC[C@@H]4[C@H](C)CC[C@@H]1[C@@]24OO3
inconclusive: Potency [1] 2.96 µM [cytotoxic, full curve] | Potency [15] 1.18 µM [cytotoxic, full curve] | Potency [3] 11.8 µM [cytotoxic, partial curve] | Potency [4] 1.32 µM [cytotoxic, full curve] | Potency [5] 9.35 µM [cytotoxic, partial curve] | Potency [17] 1.87 µM [cytotoxic, full curve] | Potency [8] 5.9 µM [cytotoxic, full curve] | Potency [9] 16.6 µM [cytotoxic, partial curve, poor fit] | Potency [13] 4.18 µM [cytotoxic, full curve] | Potency [14] 5.26 µM [cytotoxic, partial curve]
active: Potency [7] 5.26 µM

NC(=O)c1cccc(N)c1
inactive: Potency [4] | Potency [17] | Potency [7] | Potency [18] | viability [8] 132% | Potency [9] | Potency [19]
inconclusive: Potency [1] 1.18 µM [cytotoxic, full curve, poor fit] | Potency [16] 0.0093 µM [cytotoxic, full curve, poor fit] | Potency [10] 18.7 µM [cytotoxic, partial curve] | Potency [11] 13.2 µM [cytotoxic, partial curve, poor fit] | Potency [13] 11.8 µM [rising, single point]
active: Potency [15] 16.6 µM | Potency [6] 4.69 µM

The list continues.

Cc1nn(Cc2ccccc2Cl)c(C)c1CN(C)CC(O)COc1ccc(Cl)cc1 (centres undefined)
inconclusive: Potency [1] 41.8 µM [cytotoxic, partial curve, poor fit] | Potency [4] 23.5 µM [cytotoxic, single point] | Potency [16] 5.26 µM [cytotoxic, partial curve, poor fit] | Potency [17] 18.7 µM [cytotoxic, partial curve, poor fit] | Potency [6] 37.2 µM [cytotoxic, single point] | Potency [19] 23.5 µM [cytotoxic, partial curve, poor fit]
active: Potency [2] 18.7 µM | Potency [18] 20.9 µM | Potency [8] 3.32 µM | Potency [10] 20.9 µM | Potency [13] 20.9 µM

CCc1cc(Nc2nccc(-c3c(-c4ccc(OC)c(C(=O)Nc5c(F)cccc5F)c4)nc4ccccn34)n2)c(OC)cc1N1CCC(N2CCN(S(C)(=O)=O)CC2)CC1
inactive: Potency [14]
active: Potency [16] 16.6 µM
inconclusive: Potency [1] 37.2 µM [cytotoxic, single point] | Potency [2] 5.9 µM [cytotoxic, partial curve, poor fit] | Potency [3] 20.9 µM [cytotoxic, partial curve] | Potency [4] 4.18 µM [cytotoxic, full curve, poor fit] | Potency [17] 4.18 µM [cytotoxic, full curve, poor fit] | Potency [6] 2.96 µM [cytotoxic, partial curve, poor fit] | Potency [7] 2.64 µM [cytotoxic, full curve, poor fit] | Potency [8] 0.296 µM [rising, full curve, poor fit] | Potency [9] 29.6 µM [cytotoxic, single point] | Potency [10] 0.148 µM [cytotoxic, full curve, poor fit] | Potency [13] 20.9 µM [cytotoxic, partial curve, poor fit]

C=C1[C@H](n2cnc3c(=O)[nH]c(N)nc32)C[C@H](O)[C@H]1CO
active: Potency [6] 1.18 µM | Potency [12] 4.69 µM
inactive: Potency [2] | Potency [10]
inconclusive: Potency [1] 8.33 µM [cytotoxic, partial curve, poor fit] | Potency [4] 2.09 µM [cytotoxic, partial curve, poor fit] | Potency [5] 18.7 µM [cytotoxic, partial curve, poor fit] | Potency [16] 0.0332 µM [cytotoxic, full curve, poor fit] | Potency [17] 5.26 µM [cytotoxic, partial curve, poor fit] | Potency [7] 10.5 µM [cytotoxic, partial curve, poor fit] | Potency [8] 1.87 µM [cytotoxic, full curve, poor fit] | Potency [13] 0.743 µM [cytotoxic, full curve, poor fit] | Potency [14] 0.526 µM [cytotoxic, full curve, poor fit]

CC(C)Oc1cc(Nc2nc(N[C@@H](C)c3ccc(F)cn3)ncc2Cl)[nH]n1
inconclusive: Potency [1] 33.2 µM [cytotoxic, single point] | Potency [2] 26.4 µM [cytotoxic, single point] | Potency [4] 37.2 µM [cytotoxic, single point] | Potency [5] 37.2 µM [cytotoxic, single point] | Potency [17] 29.6 µM [cytotoxic, partial curve, poor fit] | Potency [8] 37.2 µM [cytotoxic, single point] | Potency [9] 29.6 µM [cytotoxic, single point]
active: Potency [16] 23.5 µM | Potency [11] 14.8 µM | Potency [19] 6.62 µM
